Some of the results follow.

The test concerns T1, CTL2-GFP (C. trachomatis L2/434/Bu, GFP-expressing).
T1 construct: L2/434/Bu, GFP-expressing
Also on record: species or system HeLa; Intracellular C. trachomatis growth in HeLa cells, bulk GFP fluorescence relative to DMSO. To be noted: bulk GFP, single well; 28.5 h, 10 µM; inhibitor.
Regarding `CNCc1cc(Br)ccc1OC` [CBK027857], the “% of control remaining” value is reported as 117.556%.

In the case of `COc1ccc(C(C)C)cc1-c1cncc(NCc2ccc3c(c2)OCO3)n1` [CBK065348], the “% of control remaining” value was 106.004%. For `N#CCSc1nnc(NC(=O)Nc2ccccc2)s1` [CBK028792], the “% of control remaining” value was found to be 140.128%.

Regarding `Cc1nnc(SCC(=O)Nc2ccc(CN3CCOCC3)cc2)n1C` [CBK306092], the “% of control remaining” value is on record as 66.288%.

Turning to `O=c1ccc2ccc(-c3ccc(OC(F)(F)F)cc3)nc2[nH]1` [CBK073720], the “% of control remaining” value came to 64.0203%. With `Cc1ccc2nc(COC(=O)c3ccc(Cn4nnc5ccccc54)cc3)cn2c1` [CBK297923] the figure was 129.275%. In the case of `O=C(Nc1ccc2[nH]ccc2c1)c1ccccc1Nc1cccc(C(F)(F)F)c1` [CBK149583], the “% of control remaining” value was 49.8008%. For the compound `CNc1nc(NC(C#N)c2ccccc2)ncc1N` (stereo not shown) [CBK174783], the “% of control remaining” value is 161.505%.

Turning to `CC1CCCC(C)N1S(=O)(=O)c1ccc(NS(=O)(=O)c2cccc(C(=O)O)c2)cc1` (stereo not shown) [CBK296944], the “% of control remaining” value stood at 129.547%. With `O=S(=O)(Nc1cc(F)cc(C(F)(F)F)c1)c1cc2c(N3CCNCC3)nccc2s1` [CBK038102C] the figure was 139.731%; with `CN1CCN(CC(O)COCc2ccc3c(c2)OCO3)CC1` (stereo not shown) [CBK278260C], 100%. For the compound `O=C(C1CCCO1)N1CCCC(c2cc3cccnc3[nH]2)C1` (stereo not shown) [CBK284978], the “% of control remaining” value came to 94.412%.

Turning to `CN(C)C(=O)Cn1nc(-c2cc3c(s2)CCCC3)oc1=O` [CBK283905], the “% of control remaining” value amounted to 131.848%. Consider `COc1cccc(C(=O)N2CCCC2c2cc3cccnc3[nH]2)c1` (stereo not shown) [CBK285082], for which the “% of control remaining” value was 127.534%. Under `O=C(COC(=O)c1cc(O)nc2ccccc12)c1ccccc1Cl` [CBK265524] stands 100%; under `COc1ccc(NC(=O)CSc2nc3c(c(-c4cccs4)c2C#N)CN(C)CC3)cc1OC` [CBK267444], 110.491%; under `CC(C)(C)OC(=O)N1CCC(c2cc(=O)n3c(n2)CCCCC3)C1` (stereo not shown) [CBK283415], 109.113%. Consider `O=C(CSc1nc2ccccc2[nH]1)c1ccc2ccccc2c1` [CBK261739], for which the “% of control remaining” value came to 99.152%. Under `COc1cc(CCc2cc(O)n3nc(-c4cccc(C)c4)c(C)c3n2)on1` [CBK285691] stands 155.815%; under `CC(C)(CN1CCOCC1)NC(=O)c1cnc2cc(C(F)(F)F)ccc2c1O` [CBK107429], 109.711%. Under `COc1ccccc1CCC(=O)Nc1cnc(-c2ccc(F)cc2)c(-c2ccco2)n1` [CBK037002] stands 129.29%; under `CCC(NC(=O)Cc1c(C)nc(SC)[nH]c1=O)c1ccc(F)cc1` (stereo not shown) [CBK282653], 112.193%.

For the origin of these results see PMC12040169 (PLOS Biology, 2025).
